Data as given in patent publication US12698279B2, “Polymorphs of a hydrochloride salt of PN6047” (Pharmnovo AB, priority 2020, dated 2026).
Some of these results come from one statement about several compounds together.

Test: Solubility in water at pH 7
Type: physicochemical
Description: For instance, whereas the free base only sparingly dissolves in water at pH 7 (<1 mg/mL), Forms HCl2 and HCl3 are highly soluble in water at the same pH (>100 mg/mL). The higher solubility of the HCl salt allows continued investigation of the compound at higher concentrations, which is advantageous e.g. in toxicology studies. […] It is expected that the increased bioavailability (and thus the increased exposure) of the HCl salt may lead to an improved efficacy of PN6047 in the treatment of pain and other indications as mentioned herein. Possibly, the increased bioavailability may allow the HCl salt to be administered in substantially lower doses than the free base. The unexpected increase in bioavailability of the HCl salt may also enable the use of sustained release formulations of the compound.

## CN(C)C(=O)c1ccc(C(=C2CCN(Cc3cncs3)CC2)c2cccc(C(N)=O)c2)cc1 [Form HCl2, 4-[(3-carbamoylphenyl)[1-(1,3-thiazol-5-ylmethyl)piperidin-4-ylidene]methyl]-N,N-dimethylbenzamide]
  solubility in water: > 100 mg/mL
